Assay results as given in PubChem BioAssay AID540256 (National Center for Advancing Translational Sciences (NCATS), 2011).
Hit rate of the full screen: of about 300,000 compounds, about 3,700 (1.2%) were called active. The shares of active, inactive and inconclusive entries below differ from those in the screen. Calls come from the whole dose curve; tested in HEK293 cells. Potencies of inconclusive entries are doubtful fits and often do not repeat.

Assay: qHTS for Inhibitors of binding or entry into cells for Lassa Virus; note: nearly all actives have a fitted effect of over 50% in size
Conditions: Lassa virus pseudotype entry inhibition, cell reporter; series mostly up to 37.9 µM
Potency is the fitted concentration of half-maximal effect.

Compound | Potency
Cc1ccc(S(=O)(=O)N2CCOCC2)cc1NC(=O)CN1CCC(Cc2ccccc2)CC1 | inconclusive: 20 µM [inhibitor, single point]
Cc1cccc(N(C)S(=O)(=O)c2ccc(-c3cc(C)no3)s2)c1 | inconclusive: 0.562 µM [inhibitor, full curve, poor fit]
CCC1CCCCN1S(=O)(=O)c1ccc(C(=O)Nc2nnc(C3=COCCO3)o2)cc1 (stereo not given) | inconclusive: 35.5 µM [inhibitor, single point]
CCCN(CC(=O)Nc1ccccc1C)C(=O)C1CC(=O)N(c2ccccc2OCC)C1 (stereo not given) | inactive
CCOC(=O)N1CCN(c2nnc(-c3ccc(C)cc3)c3ccccc23)CC1 | inconclusive: 14.1 µM [inhibitor, single point]
O=C(Nc1nccs1)c1ccc(-c2ccc(F)cc2)o1 | inactive
CC(=O)Nc1cccc(NC(=O)CSc2ncc(-c3ccc(Cl)cc3)n2Cc2ccco2)c1 | inconclusive: 35.5 µM [inhibitor, single point]
Cc1ccccc1OCC(O)Cn1c(=N)n(Cc2ccccc2)c2ccccc21 (stereo not given) | inconclusive: 22.4 µM [inhibitor, single point]
NC(=O)CSc1nc2ccccc2nc1SCC(N)=O | inactive
COc1cc(C(=O)OC2CCOC2=O)cc(Cl)c1OC (stereo not given) | inactive
O=C(CNC(=O)c1ccccc1C(=O)O)c1ccccc1 | inconclusive: 25.9 µM [activator, single point]
COc1ccc(CCN2CCC(CNC(=O)c3cnn(-c4ccc(C)cc4)c3C3CCN(C(=O)OC(C)(C)C)CC3)CC2)cc1 | inconclusive: 10 µM [inhibitor, partial curve, poor fit]
CCNC(=O)c1ccc(CSc2nc3ccccc3s2)cc1 | inconclusive: 31.6 µM [inhibitor, single point]
COc1cccc(C(=O)Nc2nc3ccccc3[nH]2)c1 | inconclusive: 10 µM [inhibitor, partial curve, poor fit]
COc1ccccc1-n1nc(-c2ccccc2)c2cnc3c(F)cc(F)cc3c21 | inactive
CCCn1cnnc1CNC(=O)C1CCC(=O)N(CCc2cccc(F)c2)C1 (stereo not given) | inconclusive: 7.08 µM [activator, partial curve, poor fit]
CCC(NC(=O)c1cc(COc2ccc(Cl)cc2OC)on1)c1ccncc1 (stereo not given) | inconclusive: 20 µM [inhibitor, partial curve, poor fit]
O=C(Cc1ccc(Cl)cc1)Nc1ncc([N+](=O)[O-])s1 | inactive
COc1ccccc1NC(=O)CN1CCN(CC(=O)Nc2ccccc2Cl)CC1 | inconclusive: 35.5 µM [activator, single point]
COc1ccc(C(C(=O)NC(C)(C)C)N(Cc2cccnc2)C(=O)CCC(=O)Nc2cc(C)on2)cc1 (stereo not given) | inconclusive: 1 µM [inhibitor, single point]
Cc1ccc(NS(=O)(=O)c2cc3c4c(cccc4c2)C(=O)NC3=O)cc1C | inconclusive: 12.6 µM [inhibitor, partial curve, poor fit]
COc1cccc(CNC(=O)COc2cccc3c2OC(C)(C)C3)c1 | inconclusive: 0.112 µM [inhibitor, full curve, poor fit]
COc1cc(C(=O)N2CCN(CCc3ccncc3)CC2)cc(OC)c1OC | inactive

Compound | Potency
COCCN(C(=O)Nc1ccccc1)c1ccccc1 | inconclusive: 35.5 µM [activator, partial curve, poor fit]
Cc1[nH]n(C2=NCCS2)c(=O)c1N=Nc1ccccc1 | inactive
O=C(c1ccc([N+](=O)[O-])cc1)n1nc(-c2ccccc2)nc1NCc1ccc(F)cc1 | inactive
Cc1snc(SCC(=O)c2ccc([N+](=O)[O-])cc2)c1C#N | inactive
O=C(COc1ccc(-c2ccccc2)cc1)N/N=C/c1ccccc1Br | inactive
Cc1ccc(C2CC(c3ccccc3OC(F)F)Nc3ncnn32)cc1 (stereo not given) | inactive
CC(C)(C)C1CCc2c(sc(N)c2C(N)=O)C1 (stereo not given) | inactive
COc1ccc(CCNC(=O)CS(=O)Cc2nc(-c3ccc(C)cc3)oc2C)cc1OC (stereo not given) | inconclusive: 8.91 µM [inhibitor, partial curve, poor fit]
O=C(CCCCN1CCCCC1)c1ccccc1 | inactive
COc1ccc(N2CCN(C(=O)c3nn(C)c4c3CS(=O)(=O)c3ccccc3-4)CC2)cc1 | inconclusive: 11.2 µM [activator, single point]
COc1cc(-c2cc(-c3nnco3)c3ccccc3n2)cc(OC)c1OC | inconclusive: 5.62 µM [inhibitor, full curve, poor fit]
CCc1ccc(NC(=O)CCc2nnc3ccc(N4CCC5(CC4)OCCO5)nn23)cc1 | inactive
N#Cc1ccccc1NC(=O)COC(=O)c1ccc2c(c1)OCCO2 | inactive
CC(NC(=O)C1CCN(C(=O)N2CCOc3ccc(Cl)cc32)CC1)c1ccccc1 (stereo not given) | inconclusive: 2.24 µM [inhibitor, partial curve, poor fit]
COc1ccc(F)cc1S(=O)(=O)n1nc(C)cc1C | inconclusive: 6.31 µM [inhibitor, single point]
Cc1cc(C(=O)Cn2nc(C(=O)O)c3ccccc3c2=O)c(C)n1-c1ccccc1 | inconclusive: 14.1 µM [inhibitor, single point]
Cn1c(-c2cc3ccc(OC(=O)C(C)(C)C)cc3oc2=O)nc2ccccc21 | inconclusive: 23.1 µM [activator, single point]
CCOC(=O)CSc1nc(C)cc(C)c1C#N | inactive
CC(NC(=O)COC(=O)c1cc(=O)c2ccccc2o1)c1ccccc1 (stereo not given) | inconclusive: 0.631 µM [inhibitor, single point]
COc1ccc(C(=S)Nc2ccc(N(C)C)cc2)cc1 | inconclusive: 29.1 µM [inhibitor, single point]
Cc1ccc(C(=O)NC(=S)Nc2cccc3nsnc23)cc1 | inconclusive: 4.47 µM [activator, partial curve, poor fit]
CCC1(c2ccccc2)NC(=O)N(CC(=O)Nc2ccc3c(C)cc(=O)oc3c2)C1=O (stereo not given) | inconclusive: 6.31 µM [inhibitor, partial curve, poor fit]

Entries from the list above containing a furan ring, fused or not, in the order listed:
Compound | Potency
O=C(Nc1nccs1)c1ccc(-c2ccc(F)cc2)o1 | inactive
CC(=O)Nc1cccc(NC(=O)CSc2ncc(-c3ccc(Cl)cc3)n2Cc2ccco2)c1 | inconclusive: 35.5 µM [inhibitor, single point]

Some of the entries so far, field by field.
O=C(COc1ccc(-c2ccccc2)cc1)N/N=C/c1ccccc1Br
  Potency: inactive
Cc1ccc(C2CC(c3ccccc3OC(F)F)Nc3ncnn32)cc1 (stereo not given)
  Potency: inactive
